# Data from patent US20230391826A1, “COMPOSITIONS AND METHODS FOR TREATING DISEASES” (Sanford Burnham Prebys Medical Discovery Institute, priority 2020, published 2023).
# The chains behind the UniProt entries cited, without tags or fusion partners. Where a name states a change or a piece, a line headed by the entry shows the natural chain unless it says otherwise.
# UniProt P29317: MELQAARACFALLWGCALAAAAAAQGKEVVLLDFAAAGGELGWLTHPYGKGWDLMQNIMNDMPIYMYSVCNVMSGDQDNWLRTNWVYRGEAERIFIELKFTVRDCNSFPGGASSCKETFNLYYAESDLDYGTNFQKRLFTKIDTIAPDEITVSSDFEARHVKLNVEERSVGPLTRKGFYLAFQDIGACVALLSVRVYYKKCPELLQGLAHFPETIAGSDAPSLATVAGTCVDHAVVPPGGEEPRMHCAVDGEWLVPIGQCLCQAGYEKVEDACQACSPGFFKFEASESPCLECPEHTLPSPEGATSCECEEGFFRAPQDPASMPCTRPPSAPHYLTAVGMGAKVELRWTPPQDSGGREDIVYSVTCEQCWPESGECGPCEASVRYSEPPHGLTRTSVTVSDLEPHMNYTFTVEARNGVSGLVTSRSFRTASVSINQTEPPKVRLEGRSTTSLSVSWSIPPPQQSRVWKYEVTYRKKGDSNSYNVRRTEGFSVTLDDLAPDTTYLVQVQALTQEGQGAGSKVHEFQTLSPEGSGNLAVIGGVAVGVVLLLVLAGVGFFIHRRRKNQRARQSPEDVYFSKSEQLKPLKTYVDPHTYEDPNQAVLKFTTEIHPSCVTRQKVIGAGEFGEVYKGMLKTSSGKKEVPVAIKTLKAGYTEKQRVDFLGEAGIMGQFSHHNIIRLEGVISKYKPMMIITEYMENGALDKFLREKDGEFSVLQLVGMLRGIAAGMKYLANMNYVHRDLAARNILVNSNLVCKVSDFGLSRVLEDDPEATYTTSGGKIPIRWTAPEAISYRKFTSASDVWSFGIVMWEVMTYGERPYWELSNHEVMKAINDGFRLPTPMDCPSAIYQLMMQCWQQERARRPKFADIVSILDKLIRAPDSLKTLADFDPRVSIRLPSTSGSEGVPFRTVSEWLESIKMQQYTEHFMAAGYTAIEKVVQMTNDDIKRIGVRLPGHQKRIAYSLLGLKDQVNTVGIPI
# No constants are given. Whether binding was seen depends on the method and setting. Binding can be weak; no strength is given.
# Target: EphA2 ligand binding domain (EphA2 LBD), residues 28-200 (UniProt P29317)
# Experiment: ITC, soluble EphA2 LBD and peptide
row,Binder,binding
1,AWLAYPDSVPYGSGC (βAla (βA) at position 1; C-terminal Cys of the two chains joined by a disulfide) [βA-WLA-YGSGC dimer (C-ter)],binds
2,AWLAYPDSVPYRPKC (βAla (βA) at position 1; C-terminal Cys of the two chains joined by a disulfide) [βA-WLA-YRPKC dimer (C-ter)],binds
3,CGAWLAYPDSVPYR (N-terminal Cys of the two chains joined by a disulfide) [CGA-WLA-YR dimer (N-ter)],binds
